The record followed here is publication PMC9373814 (Theranostics, 2022).

The nature of this data set: general procedure: Fmoc solid-phase peptide synthesis; HATU/DIPEA. To be noted: whole synthesis.

For “D-Phe-cyclo[Cys-Tyr-D-Trp-Lys(IvDde)-Thr-Cys]-Thr-OH”, the isolated yield was determined as 40%.
